Source: US11879137B2, “Treatment of type 1 diabetes and autoimmune diseases or disorders” (THE CHILDREN'S MEDICAL CENTER CORPORATION, priority 2017, dated 2024)
For at least one compound, name, drawing or mass did not settle the structure.

Test system: newly hyperglycemic NOD mice
Assay: Reversal of diabetes in newly hyperglycemic NOD mice after adoptive transfer
Assay type: in vivo
Details: control treatments

## C[C@H]1c2cccc(O)c2C(=O)C2=C(O)[C@]3(O)C(=O)C(C(N)=O)=C(O)[C@@H](N(C)C)[C@@H]3[C@@H](O)[C@@H]21 [doxycycline]
  hyperglycemic NOD mice reverted to normoglycemia (number of mice): none
